# No constants are given. Whether binding was seen depends on the method and setting. Binding seen in cells or lysates may run through a third protein. Some binding calls cover weakened binding; strength is not graded here.
# Amino acid sequences for entries named in this document (tags omitted).
# UniProt A2AWL7: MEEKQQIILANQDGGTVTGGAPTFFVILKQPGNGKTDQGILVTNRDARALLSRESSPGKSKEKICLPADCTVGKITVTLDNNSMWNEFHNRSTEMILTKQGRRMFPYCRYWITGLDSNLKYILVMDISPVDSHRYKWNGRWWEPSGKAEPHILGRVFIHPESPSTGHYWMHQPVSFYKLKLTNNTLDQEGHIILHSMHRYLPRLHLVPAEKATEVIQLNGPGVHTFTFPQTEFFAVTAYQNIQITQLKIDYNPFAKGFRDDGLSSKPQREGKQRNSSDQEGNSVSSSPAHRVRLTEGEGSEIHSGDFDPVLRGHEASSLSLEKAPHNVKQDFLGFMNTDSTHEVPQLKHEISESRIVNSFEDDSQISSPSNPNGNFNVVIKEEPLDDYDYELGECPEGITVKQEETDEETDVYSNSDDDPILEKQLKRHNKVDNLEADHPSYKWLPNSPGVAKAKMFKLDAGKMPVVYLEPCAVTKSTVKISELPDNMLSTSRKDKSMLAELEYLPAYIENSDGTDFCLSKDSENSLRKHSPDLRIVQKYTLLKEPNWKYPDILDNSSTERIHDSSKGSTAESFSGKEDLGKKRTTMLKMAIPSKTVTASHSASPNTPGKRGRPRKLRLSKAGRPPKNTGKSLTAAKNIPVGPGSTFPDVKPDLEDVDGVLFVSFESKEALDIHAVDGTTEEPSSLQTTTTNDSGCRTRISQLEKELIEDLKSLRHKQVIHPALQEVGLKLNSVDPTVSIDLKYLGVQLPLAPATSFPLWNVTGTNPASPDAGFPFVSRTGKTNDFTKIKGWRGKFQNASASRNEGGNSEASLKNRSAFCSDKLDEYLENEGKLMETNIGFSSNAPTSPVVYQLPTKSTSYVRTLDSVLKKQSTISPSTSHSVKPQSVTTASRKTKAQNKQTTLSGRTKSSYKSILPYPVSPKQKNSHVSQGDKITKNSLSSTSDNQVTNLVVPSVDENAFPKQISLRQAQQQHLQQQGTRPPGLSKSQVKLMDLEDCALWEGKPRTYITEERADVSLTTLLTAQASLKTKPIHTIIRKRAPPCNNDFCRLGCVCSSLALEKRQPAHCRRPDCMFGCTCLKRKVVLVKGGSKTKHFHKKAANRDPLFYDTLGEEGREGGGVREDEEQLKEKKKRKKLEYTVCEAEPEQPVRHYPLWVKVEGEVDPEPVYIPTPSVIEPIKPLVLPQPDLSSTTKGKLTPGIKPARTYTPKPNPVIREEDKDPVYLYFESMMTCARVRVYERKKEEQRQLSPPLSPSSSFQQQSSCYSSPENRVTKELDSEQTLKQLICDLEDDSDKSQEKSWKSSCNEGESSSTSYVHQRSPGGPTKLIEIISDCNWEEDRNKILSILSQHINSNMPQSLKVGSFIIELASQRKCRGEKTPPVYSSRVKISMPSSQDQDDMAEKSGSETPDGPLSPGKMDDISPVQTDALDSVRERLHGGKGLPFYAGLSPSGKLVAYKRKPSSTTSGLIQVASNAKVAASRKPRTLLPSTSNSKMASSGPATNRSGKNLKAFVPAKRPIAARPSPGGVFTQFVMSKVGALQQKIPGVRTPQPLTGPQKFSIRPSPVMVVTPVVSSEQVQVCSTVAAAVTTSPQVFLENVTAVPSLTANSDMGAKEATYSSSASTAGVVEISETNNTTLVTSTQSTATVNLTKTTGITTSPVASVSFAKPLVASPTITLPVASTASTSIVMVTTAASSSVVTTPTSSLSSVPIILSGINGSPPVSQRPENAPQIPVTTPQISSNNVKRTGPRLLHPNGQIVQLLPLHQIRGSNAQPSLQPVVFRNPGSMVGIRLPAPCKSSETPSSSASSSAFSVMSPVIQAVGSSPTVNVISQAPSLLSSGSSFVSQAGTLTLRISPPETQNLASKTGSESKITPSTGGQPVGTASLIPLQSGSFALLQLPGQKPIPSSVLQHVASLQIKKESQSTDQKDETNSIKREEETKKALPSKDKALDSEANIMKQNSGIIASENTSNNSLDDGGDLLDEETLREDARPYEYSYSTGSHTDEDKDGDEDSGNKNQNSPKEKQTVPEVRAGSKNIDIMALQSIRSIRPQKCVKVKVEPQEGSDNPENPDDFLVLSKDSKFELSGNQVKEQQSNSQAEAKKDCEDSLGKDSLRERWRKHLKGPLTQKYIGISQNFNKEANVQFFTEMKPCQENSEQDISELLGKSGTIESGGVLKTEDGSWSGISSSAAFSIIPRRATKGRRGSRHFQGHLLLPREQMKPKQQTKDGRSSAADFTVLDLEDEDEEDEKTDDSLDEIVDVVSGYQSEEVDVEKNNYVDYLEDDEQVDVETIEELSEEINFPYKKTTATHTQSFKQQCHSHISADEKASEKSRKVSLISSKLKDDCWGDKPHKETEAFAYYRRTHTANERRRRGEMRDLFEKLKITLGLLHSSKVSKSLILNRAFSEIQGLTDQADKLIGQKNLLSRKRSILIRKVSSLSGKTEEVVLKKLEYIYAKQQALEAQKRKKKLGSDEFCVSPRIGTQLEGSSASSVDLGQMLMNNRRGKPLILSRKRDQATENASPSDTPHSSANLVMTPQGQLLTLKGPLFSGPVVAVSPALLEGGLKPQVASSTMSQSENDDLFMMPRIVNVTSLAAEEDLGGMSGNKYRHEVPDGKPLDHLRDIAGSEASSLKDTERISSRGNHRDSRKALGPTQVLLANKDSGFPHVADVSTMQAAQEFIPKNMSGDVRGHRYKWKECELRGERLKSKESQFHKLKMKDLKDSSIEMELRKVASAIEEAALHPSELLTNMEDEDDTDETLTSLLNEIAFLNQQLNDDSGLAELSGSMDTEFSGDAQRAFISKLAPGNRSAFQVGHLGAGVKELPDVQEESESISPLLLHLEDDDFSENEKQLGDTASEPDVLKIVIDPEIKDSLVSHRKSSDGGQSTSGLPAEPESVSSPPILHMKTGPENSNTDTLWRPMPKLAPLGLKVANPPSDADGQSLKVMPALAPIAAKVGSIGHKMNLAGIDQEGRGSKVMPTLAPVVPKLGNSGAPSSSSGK
# UniProt Q99496: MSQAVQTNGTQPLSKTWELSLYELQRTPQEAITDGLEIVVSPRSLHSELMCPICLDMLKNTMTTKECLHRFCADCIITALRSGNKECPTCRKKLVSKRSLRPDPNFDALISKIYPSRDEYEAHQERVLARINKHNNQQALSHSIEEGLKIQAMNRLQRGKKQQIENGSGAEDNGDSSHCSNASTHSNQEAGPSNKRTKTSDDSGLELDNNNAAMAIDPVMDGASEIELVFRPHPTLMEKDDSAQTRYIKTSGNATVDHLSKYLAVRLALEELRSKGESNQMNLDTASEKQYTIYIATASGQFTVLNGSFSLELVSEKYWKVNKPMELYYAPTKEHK
# UniProt P61244: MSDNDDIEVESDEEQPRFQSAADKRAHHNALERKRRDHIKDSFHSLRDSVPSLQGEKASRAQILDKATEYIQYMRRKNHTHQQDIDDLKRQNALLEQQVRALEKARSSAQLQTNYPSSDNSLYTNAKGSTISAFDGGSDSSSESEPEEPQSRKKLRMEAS
# UniProt Q15022: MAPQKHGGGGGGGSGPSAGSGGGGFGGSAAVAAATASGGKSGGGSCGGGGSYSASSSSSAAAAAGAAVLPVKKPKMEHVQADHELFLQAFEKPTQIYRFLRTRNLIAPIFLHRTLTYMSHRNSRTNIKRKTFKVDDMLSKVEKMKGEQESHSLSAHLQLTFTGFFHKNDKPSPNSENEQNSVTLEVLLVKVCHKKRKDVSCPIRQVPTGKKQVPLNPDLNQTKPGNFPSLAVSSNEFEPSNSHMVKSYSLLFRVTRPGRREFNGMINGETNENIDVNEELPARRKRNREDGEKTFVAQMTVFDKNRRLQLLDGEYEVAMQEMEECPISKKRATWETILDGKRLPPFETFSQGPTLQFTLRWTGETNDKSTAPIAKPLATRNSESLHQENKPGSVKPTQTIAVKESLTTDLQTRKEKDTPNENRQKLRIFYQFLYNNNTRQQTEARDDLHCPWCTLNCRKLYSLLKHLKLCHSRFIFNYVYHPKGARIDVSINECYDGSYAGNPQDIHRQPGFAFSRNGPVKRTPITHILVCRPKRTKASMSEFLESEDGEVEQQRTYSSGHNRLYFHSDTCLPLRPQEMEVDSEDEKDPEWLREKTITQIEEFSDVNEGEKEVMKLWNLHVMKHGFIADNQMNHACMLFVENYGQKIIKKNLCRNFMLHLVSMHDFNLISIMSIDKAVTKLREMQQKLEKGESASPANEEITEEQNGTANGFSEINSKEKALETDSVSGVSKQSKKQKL
# UniProt Q969R5: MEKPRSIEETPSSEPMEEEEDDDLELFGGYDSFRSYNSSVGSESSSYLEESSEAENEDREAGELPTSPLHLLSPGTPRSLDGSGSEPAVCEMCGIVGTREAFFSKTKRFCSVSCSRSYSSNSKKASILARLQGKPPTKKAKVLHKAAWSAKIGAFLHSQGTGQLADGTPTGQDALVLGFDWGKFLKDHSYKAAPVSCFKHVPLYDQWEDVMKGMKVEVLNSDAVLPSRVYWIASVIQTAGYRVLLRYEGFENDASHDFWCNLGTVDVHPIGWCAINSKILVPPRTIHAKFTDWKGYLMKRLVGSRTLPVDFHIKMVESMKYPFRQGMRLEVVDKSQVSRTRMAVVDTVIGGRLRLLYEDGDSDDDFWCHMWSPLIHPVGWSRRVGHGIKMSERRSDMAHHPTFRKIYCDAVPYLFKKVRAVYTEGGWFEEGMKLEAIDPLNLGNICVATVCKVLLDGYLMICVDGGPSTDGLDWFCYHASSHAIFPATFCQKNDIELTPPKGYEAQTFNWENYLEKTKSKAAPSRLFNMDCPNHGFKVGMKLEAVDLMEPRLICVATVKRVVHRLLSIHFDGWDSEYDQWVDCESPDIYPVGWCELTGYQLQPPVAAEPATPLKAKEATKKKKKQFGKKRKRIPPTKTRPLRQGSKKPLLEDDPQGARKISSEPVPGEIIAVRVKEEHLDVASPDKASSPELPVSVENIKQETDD
# UniProt Q13185: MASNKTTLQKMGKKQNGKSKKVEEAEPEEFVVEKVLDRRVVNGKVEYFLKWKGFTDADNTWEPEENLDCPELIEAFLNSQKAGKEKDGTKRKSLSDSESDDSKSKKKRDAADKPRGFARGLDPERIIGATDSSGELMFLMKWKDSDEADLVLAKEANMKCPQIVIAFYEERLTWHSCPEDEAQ
# B1: PCGF6 (protein, UniProt Q9BYE7 1-350)
# chain: MEGVAVVTAGSVGAAKTEGAAALPPPPPVSPPALTPAPAAGEEGPAPLSETGAPGCSGSRPPELEPERSLGRFRGRFEDEDEELEEEEELEEEEEEEEEDMSHFSLRLEGGRQDSEDEEERLINLSELTPYILCSICKGYLIDATTITECLHTFCKSCIVRHFYYSNRCPKCNIVVHQTQPLYNIRLDRQLQDIVYKLVINLEEREKKQMHDFYKERGLEVPKPAVPQPVPSSKGRSKKVLESVFRIPPELDMSLLLEFIGANEGTGHFKPLEKKFVRVSGEATIGHVEKFLRRKMGLDPACQVDIICGDHLLEQYQTLREIRRAIGDAAMQDGLLVLHYGLVVSPLKIT
# Target: Flag-tagged wildtype MGA (mouse) (UniProt A2AWL7)
# Experiment: co-IP
row,Molecule,binding
1,RING1B (from UniProt Q99496 1-336),binds
2,MAX (from UniProt P61244 1-160),binds
3,SUZ12 (from UniProt Q15022 1-739),no binding
4,L3MBTL2 (from UniProt Q969R5 1-705),binds
5,HP1γ (from UniProt Q13185 1-183),binds
6,B1,binds
